Measurements as given in the supplement of paper PMC6078165.

System: BT20
Assay: relative JC-1 red fluorescence (viability) vs pre-drug, coculture with fibroblast (fraction); higher = more viable cancer cells
Description: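 JC-1 labelled TNBC cells cocultured 1:1 (1,500 cells each) with CellTrace Violet stained primary or stromal fibroblasts in 384-well plates in FluoroBrite medium, treated with one of 42 anticancer drugs at 0.1, 1, 10 or 100 uM. JC-1 red fluorescence (mitochondrial integrity in cancer cells only) was read by plate reader every 8 h for 72 h. Values are normalised to each well's pre-drug value. The stock of one drug was tenfold lower, so its dose labels may be too high.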

CC(C)C[C@H](NC(=O)[C@@H](COC(C)(C)C)NC(=O)[C@H](Cc1ccc(O)cc1)NC(=O)[C@H](CO)NC(=O)[C@H](Cc1c[nH]c2ccccc12)NC(=O)[C@H](Cc1cnc[nH]1)NC(=O)[C@@H]1CCC(=O)N1)C(=O)N[C@@H](CCCNC(=N)N)C(=O)N1CCC[C@H]1C(=O)NNC(N)=O [Goserelin]
relative JC-1 red fluorescence
Settings	8 h	16 h	24 h	32 h	40 h	48 h	56 h	64 h	72 h
0.1 µM, coculture fibroblast: C12385	0.8992 ± 0.0083	0.783 ± 0.0043	0.72196 ± 0.0002	0.6581 ± 0.0014	0.587 ± 0.0079	0.5565 ± 0.0053	0.53215 ± 9.5e-05	0.51345 ± 0.00042	0.496 ± 0.0084
0.1 µM, coculture fibroblast: H6013	0.926 ± 0.043	0.9155 ± 0.0025	0.926 ± 0.048	0.89 ± 0.013	0.873 ± 0.015	0.8686 ± 0.0039	0.8926 ± 0.0036	0.8818 ± 0.0036	0.871 ± 0.011
0.1 µM, coculture fibroblast: H6019	0.857 ± 0.029	0.799 ± 0.072	0.782 ± 0.097	0.742 ± 0.13	0.707 ± 0.15	0.703 ± 0.16	0.683 ± 0.18	0.676 ± 0.19	0.662 ± 0.21
0.1 µM, coculture fibroblast: H6076	0.965 ± 0.042	0.893 ± 0.026	0.7981 ± 0.0022	0.754 ± 0.0095	0.718 ± 0.027	0.691 ± 0.028	0.679 ± 0.02	0.677 ± 0.024	0.662 ± 0.015
0.1 µM, coculture fibroblast: H6231	0.791 ± 0.094	0.898 ± 0.044	0.794 ± 0.052	0.728 ± 0.035	0.68 ± 0.015	0.6285 ± 0.0047	0.5861 ± 0.0049	0.567 ± 0.011	0.534 ± 0.022
0.1 µM, coculture fibroblast: HADF	0.923 ± 0.058	0.883 ± 0.031	0.831 ± 0.045	0.785 ± 0.041	0.745 ± 0.051	0.694 ± 0.051	0.674 ± 0.06	0.663 ± 0.05	0.63 ± 0.054
0.1 µM, coculture fibroblast: HCFa	0.88 ± 0.016	0.805 ± 0.012	0.758 ± 0.032	0.69 ± 0.041	0.632 ± 0.043	0.597 ± 0.045	0.56 ± 0.046	0.536 ± 0.05	0.498 ± 0.042
0.1 µM, coculture fibroblast: HCPF	0.894 ± 0.066	0.896 ± 0.027	0.8258 ± 0.0027	0.777 ± 0.016	0.735 ± 0.012	0.692 ± 0.03	0.641 ± 0.04	0.625 ± 0.043	0.582 ± 0.042
0.1 µM, coculture fibroblast: HHSteC	0.9068 ± 0.0045	0.836 ± 0.027	0.809 ± 0.031	0.724 ± 0.03	0.672 ± 0.04	0.634 ± 0.036	0.607 ± 0.042	0.578 ± 0.045	0.548 ± 0.044
0.1 µM, coculture fibroblast: HMF	0.903 ± 0.043	0.835 ± 0.033	0.759 ± 0.022	0.706 ± 0.017	0.667 ± 0.0065	0.6312 ± 0.0019	0.607 ± 0.0068	0.586 ± 0.014	0.573 ± 0.016
0.1 µM, coculture fibroblast: HPFa	0.973 ± 0.0081	0.887 ± 0.048	0.93 ± 0.065	0.857 ± 0.069	0.84 ± 0.094	0.803 ± 0.1	0.776 ± 0.11	0.745 ± 0.12	0.686 ± 0.12
0.1 µM, coculture fibroblast: HUF	0.939 ± 0.041	0.845 ± 0.057	0.854 ± 0.085	0.785 ± 0.11	0.724 ± 0.11	0.685 ± 0.11	0.651 ± 0.097	0.639 ± 0.096	0.612 ± 0.089
0.1 µM, coculture fibroblast: Hs5	0.935 ± 0.04	0.878 ± 0.044	0.783 ± 0.023	0.736 ± 0.017	0.67 ± 0.018	0.629 ± 0.013	0.587 ± 0.013	0.548 ± 0.011	0.5134 ± 0.0029
0.1 µM, coculture fibroblast: Hs27A	0.795 ± 0.1	0.966 ± 0.034	0.902 ± 0.062	0.886 ± 0.065	0.835 ± 0.064	0.809 ± 0.065	0.79 ± 0.059	0.77 ± 0.062	0.726 ± 0.065
0.1 µM, coculture fibroblast: Hs343T	0.917 ± 0.074	0.893 ± 0.0031	0.7932 ± 0.0063	0.739 ± 0.015	0.688 ± 0.029	0.642 ± 0.042	0.599 ± 0.033	0.584 ± 0.026	0.56 ± 0.027
0.1 µM, coculture fibroblast: WS1	0.873 ± 0.02	0.7754 ± 0.0065	0.719 ± 0.028	0.634 ± 0.04	0.562 ± 0.05	0.528 ± 0.056	0.502 ± 0.07	0.475 ± 0.083	0.458 ± 0.086
1 µM, coculture fibroblast: C12385	0.904 ± 0.028	0.856 ± 0.053	0.753 ± 0.1	0.682 ± 0.11	0.629 ± 0.12	0.598 ± 0.12	0.561 ± 0.12	0.532 ± 0.12	0.514 ± 0.13
1 µM, coculture fibroblast: H6013	0.9623 ± 0.0094	0.872 ± 0.04	0.852 ± 0.011	0.806 ± 0.025	0.768 ± 0.027	0.764 ± 0.012	0.7844 ± 0.0044	0.773 ± 0.018	0.768 ± 0.034
1 µM, coculture fibroblast: H6019	0.892 ± 0.021	0.856 ± 0.067	0.828 ± 0.1	0.801 ± 0.16	0.785 ± 0.21	0.776 ± 0.23	0.752 ± 0.23	0.733 ± 0.25	0.72 ± 0.25
1 µM, coculture fibroblast: H6076	0.888 ± 0.14	0.87346 ± 0.00064	0.836 ± 0.01	0.815 ± 0.013	0.787 ± 0.021	0.777 ± 0.016	0.774 ± 0.026	0.78 ± 0.032	0.77 ± 0.03
1 µM, coculture fibroblast: H6231	0.855 ± 0.19	0.908 ± 0.018	0.781 ± 0.018	0.711 ± 0.024	0.664 ± 0.025	0.622 ± 0.032	0.591 ± 0.033	0.568 ± 0.042	0.541 ± 0.045
1 µM, coculture fibroblast: HADF	0.923 ± 0.074	0.93 ± 0.014	0.854 ± 0.1	0.863 ± 0.17	0.843 ± 0.2	0.808 ± 0.22	0.798 ± 0.23	0.784 ± 0.23	0.753 ± 0.23
1 µM, coculture fibroblast: HCFa	0.9436 ± 0.0049	0.844 ± 0.015	0.806 ± 0.023	0.748 ± 0.026	0.688 ± 0.049	0.649 ± 0.052	0.621 ± 0.07	0.591 ± 0.081	0.55 ± 0.084
1 µM, coculture fibroblast: HCPF	0.907 ± 0.074	0.86 ± 0.037	0.806 ± 0.014	0.7721 ± 0.0066	0.735 ± 0.012	0.684 ± 0.034	0.653 ± 0.04	0.636 ± 0.053	0.604 ± 0.054
1 µM, coculture fibroblast: HHSteC	0.916 ± 0.02	0.833 ± 0.046	0.83 ± 0.066	0.759 ± 0.086	0.714 ± 0.1	0.687 ± 0.12	0.667 ± 0.13	0.649 ± 0.14	0.62 ± 0.14
1 µM, coculture fibroblast: HMF	0.897 ± 0.11	0.8601 ± 0.0056	0.741 ± 0.035	0.7 ± 0.049	0.653 ± 0.056	0.603 ± 0.05	0.559 ± 0.059	0.522 ± 0.06	0.5 ± 0.071
1 µM, coculture fibroblast: HPFa	0.937 ± 0.017	0.868 ± 0.035	0.878 ± 0.038	0.784 ± 0.042	0.765 ± 0.032	0.711 ± 0.032	0.689 ± 0.0097	0.6579 ± 0.0043	0.60686 ± 0.00016
1 µM, coculture fibroblast: HUF	0.904 ± 0.0034	0.827 ± 0.015	0.7823 ± 0.0019	0.7003 ± 0.0034	0.6443 ± 0.0014	0.61353 ± 0.00052	0.597 ± 0.011	0.5792 ± 0.0037	0.562 ± 0.0036
1 µM, coculture fibroblast: Hs5	0.969 ± 0.017	0.912 ± 0.02	0.844 ± 0.018	0.812 ± 0.022	0.774 ± 0.021	0.751 ± 0.014	0.717 ± 0.012	0.689 ± 0.012	0.6551 ± 0.0048
1 µM, coculture fibroblast: Hs27A	0.877 ± 0.078	0.909 ± 0.068	0.9 ± 0.019	0.895 ± 0.051	0.86 ± 0.05	0.848 ± 0.054	0.83 ± 0.062	0.807 ± 0.063	0.758 ± 0.071
1 µM, coculture fibroblast: Hs343T	0.736 ± 0.035	0.888 ± 0.012	0.807 ± 0.045	0.762 ± 0.051	0.709 ± 0.075	0.665 ± 0.089	0.614 ± 0.11	0.591 ± 0.12	0.552 ± 0.14
1 µM, coculture fibroblast: WS1	0.887 ± 0.012	0.827 ± 0.05	0.751 ± 0.031	0.675 ± 0.03	0.617 ± 0.028	0.585 ± 0.031	0.555 ± 0.025	0.529 ± 0.019	0.522 ± 0.024

± gives the standard deviation of the averaged measurements. The reference is the same well before dosing, and untreated signal decays as well.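 Fibroblast labels name human fibroblasts: mostly primary ones from tissues such as uterus (C12385, HUF), lung (H6013), bone (Hs27A), adrenal (HADF) and skin (WS1), plus mammary HMF and breast cancer-associated Hs343T. The cancer cells are basal-like or mesenchymal-like triple-negative breast cancer lines. The paper calls a changed response a hit when it shifts by more than 3x the replicate standard deviation. The tissue of the other fibroblasts is not given here.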
